Assay results: publication PMC4053938
These are yes or no findings as the source states them, for the method shown. Binding seen in cells or lysates may run through a third protein. Some entries that bind do so weakly or less than the wild type.

The chains behind the UniProt entries cited, without tags or fusion partners.
UniProt Q3URK3: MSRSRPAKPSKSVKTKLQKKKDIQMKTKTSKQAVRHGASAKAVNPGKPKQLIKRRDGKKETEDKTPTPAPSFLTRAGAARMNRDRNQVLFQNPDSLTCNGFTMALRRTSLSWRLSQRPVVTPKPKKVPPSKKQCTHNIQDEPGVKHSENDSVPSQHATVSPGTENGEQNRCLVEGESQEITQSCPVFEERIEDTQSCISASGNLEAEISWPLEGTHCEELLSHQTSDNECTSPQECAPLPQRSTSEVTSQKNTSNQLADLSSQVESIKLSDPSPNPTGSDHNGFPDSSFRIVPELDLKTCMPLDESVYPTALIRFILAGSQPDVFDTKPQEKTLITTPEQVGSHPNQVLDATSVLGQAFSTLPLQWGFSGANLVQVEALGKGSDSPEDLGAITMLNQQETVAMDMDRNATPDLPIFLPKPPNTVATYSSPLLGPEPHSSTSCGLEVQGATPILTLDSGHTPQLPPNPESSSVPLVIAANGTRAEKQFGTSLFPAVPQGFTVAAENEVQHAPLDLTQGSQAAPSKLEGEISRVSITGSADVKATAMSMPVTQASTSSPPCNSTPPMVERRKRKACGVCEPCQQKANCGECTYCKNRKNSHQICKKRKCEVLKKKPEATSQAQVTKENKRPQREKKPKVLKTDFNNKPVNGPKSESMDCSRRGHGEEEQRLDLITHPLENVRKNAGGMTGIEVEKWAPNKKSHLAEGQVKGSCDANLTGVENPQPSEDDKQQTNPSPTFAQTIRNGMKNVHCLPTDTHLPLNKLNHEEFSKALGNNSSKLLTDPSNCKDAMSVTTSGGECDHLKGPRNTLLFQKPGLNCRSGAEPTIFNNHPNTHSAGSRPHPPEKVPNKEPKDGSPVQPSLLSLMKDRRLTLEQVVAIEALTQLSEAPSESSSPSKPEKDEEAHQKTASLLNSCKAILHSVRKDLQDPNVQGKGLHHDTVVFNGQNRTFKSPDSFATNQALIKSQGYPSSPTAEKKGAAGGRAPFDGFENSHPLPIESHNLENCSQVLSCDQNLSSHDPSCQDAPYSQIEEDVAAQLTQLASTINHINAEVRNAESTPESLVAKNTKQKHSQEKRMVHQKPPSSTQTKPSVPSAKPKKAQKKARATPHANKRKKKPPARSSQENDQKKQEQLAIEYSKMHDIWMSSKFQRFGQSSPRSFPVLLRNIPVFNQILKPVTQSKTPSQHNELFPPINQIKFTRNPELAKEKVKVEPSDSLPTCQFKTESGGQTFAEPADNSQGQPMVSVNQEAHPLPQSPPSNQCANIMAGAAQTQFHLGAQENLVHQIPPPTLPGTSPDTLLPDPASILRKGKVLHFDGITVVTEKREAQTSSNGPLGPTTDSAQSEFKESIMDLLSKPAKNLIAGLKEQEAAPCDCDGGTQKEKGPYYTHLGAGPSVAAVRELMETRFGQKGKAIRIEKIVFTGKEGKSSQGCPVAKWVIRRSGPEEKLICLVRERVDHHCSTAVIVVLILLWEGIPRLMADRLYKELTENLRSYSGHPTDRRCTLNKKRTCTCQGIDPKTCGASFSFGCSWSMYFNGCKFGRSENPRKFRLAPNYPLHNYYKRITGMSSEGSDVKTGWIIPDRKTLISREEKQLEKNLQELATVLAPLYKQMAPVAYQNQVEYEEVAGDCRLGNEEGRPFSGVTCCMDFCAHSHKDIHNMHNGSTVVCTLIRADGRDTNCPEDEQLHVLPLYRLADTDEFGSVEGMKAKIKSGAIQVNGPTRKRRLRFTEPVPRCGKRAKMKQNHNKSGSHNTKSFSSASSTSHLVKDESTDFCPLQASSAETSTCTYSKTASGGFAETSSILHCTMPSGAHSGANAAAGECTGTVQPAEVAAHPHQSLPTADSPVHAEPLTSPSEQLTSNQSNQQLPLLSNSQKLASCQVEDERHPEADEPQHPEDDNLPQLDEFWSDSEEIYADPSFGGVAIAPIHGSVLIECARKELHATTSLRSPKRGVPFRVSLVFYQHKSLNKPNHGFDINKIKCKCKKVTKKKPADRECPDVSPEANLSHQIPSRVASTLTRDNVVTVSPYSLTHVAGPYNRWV

Key:
[1] = molecular target: Tet1 (mouse (endogenous in MEFs)) (UniProt Q3URK3); test: co-IP; endogenous proteins from MEF nuclear extracts (micrococcal nuclease digested); 3 ug anti-Tet1, anti-Suz12 or control IgG overnight at 4°C, Protein G magnetic beads; washed with digestion buffer with 0.1% NP-40; eluted with 0.4 M NaCl TE; western blot
[2] = molecular target: Tet1 (mouse (endogenous in E14 ES cells)) (UniProt Q3URK3); test: co-IP; endogenous proteins from ESC nuclear extracts (micrococcal nuclease digested); 3 ug anti-Tet1, anti-Suz12 or control IgG overnight at 4°C, Protein G magnetic beads; washed with digestion buffer with 0.1% NP-40; eluted with 0.4 M NaCl TE; western blot

B1: Sin3a (protein, UniProt Q60520 1-1274)
chain: MKRRLDDQESPVYAAQQRRIPGSTEAFSHQHRVLAPAPPVYEAVSETMQSATGIQYSVAPNYQVSAVPQSSGSHGPAIAAVHSSHHHPTAVQPHGGQVVQSHAHPAPPVAPVQGQQQFQRLKVEDALSYLDQVKLQFGSQPQVYNDFLDIMKEFKSQSIDTPGVISRVSQLFKGHPDLIMGFNTFLPPGYKIEVQTNDMVNVTTPGQVHQIPTHGIQPQPQPPPQHPSQPSSQSAPTPAQPAPQPTAAKVSKPSQLQAHTPASQQTPPLPPYASPRSPPVQPHTPVTISLGTAPSLQNNQPVEFNHAINYVNKIKNRFQGQPDIYKAFLEILHTYQKEQRNAKEAGGNYTPALTEQEVYAQVARLFKNQEDLLSEFGQFLPDANSSVLLSKTTAEKVDSVRNDHGGTVKKPQLNNKPQRPSQNGCQIRRHSGTGATPPVKKKPKLMSLKESSMADASKHGVGTESLFFDKVRKALRSAEAYENFLRCLVIFNQEVISRAELVQLVSPFLGKFPELFNWFKNFLGYKESVHLESFPKERATEGIAMEIDYASCKRLGSSYRALPKSYQQPKCTGRTPLCKEVLNDTWVSFPSWSEDSTFVSSKKTQYEEHIYRCEDERFELDVVLETNLATIRVLEAIQKKLSRLSAEEQAKFRLDNTLGGTSEVIHRKALQRIYADKAADIIDGLRKNPSIAVPIVLKRLKMKEEEWREAQRGFNKVWREQNEKYYLKSLDHQGINFKQNDTKVLRSKSLLNEIESIYDERQEQATEENAGVPVGPHLSLAYEDKQILEDAAALIIHHVKRQTGIQKEDKYKIKQIMHHFIPDLLFAQRGDLSDVEEEEEEEMDVDEATGAPKKHNGVGGSPPKSKLLFSNTAAQKLRGMDEVYNLFYVNNNWYIFMRLHQILCLRLLRICSQAERQIEEENREREWEREVLGIKRDKSDSPAIQLRLKEPMDVDVEDYYPAFLDMVRSLLDGNIDSSQYEDSLREMFTIHAYIAFTMDKLIQSIVRQLQHIVSDEVCVQVTDLYLAENNNGATGGQLNSQTSRSLLESAYQRKAEQLMSDENCFKLMFIQSQGQVQLTVELLDTEEENSDDPVEAERWSDYVERYMSSDTTSPELREHLAQKPVFLPRNLRRIRKCQRGREQQEKEGKEGNSKKTMENVESLDKLECRFKLNSYKMVYVIKSEDYMYRRTALLRAHQSHERVSKRLHQRFQAWVDKWTKEHVPREMAAETSKWLMGEGLEGLVPCTTTCDTETLHFVSINKYRVKYGTVFKAP
binding [1]: binds
binding [2]: binds
